These are yes or no findings as the source states them, for the method shown. Binding can be weak; no strength is given.
B1: phage SN-1 (phage expressing the peptide defined by SEQ ID NO: 1) (peptide)
peptide: HSQISGKYQRYLKDA
notes: not shown: phage coat protein of the Fuse 5 vector to which the peptide is fused; not specified

The chains behind the UniProt entries cited, without tags or fusion partners. Where a name states a change or a piece, a line headed by the entry shows the natural chain unless it says otherwise.
UniProt Q10588: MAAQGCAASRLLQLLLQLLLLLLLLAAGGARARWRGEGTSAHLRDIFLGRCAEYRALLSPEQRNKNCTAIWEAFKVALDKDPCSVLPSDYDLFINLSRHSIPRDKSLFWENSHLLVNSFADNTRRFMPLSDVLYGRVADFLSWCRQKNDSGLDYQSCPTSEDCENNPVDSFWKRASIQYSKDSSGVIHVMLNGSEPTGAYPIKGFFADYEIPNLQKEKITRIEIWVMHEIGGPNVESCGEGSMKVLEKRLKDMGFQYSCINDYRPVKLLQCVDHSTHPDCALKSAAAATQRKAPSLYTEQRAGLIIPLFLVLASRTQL

Assays:
[1] = target: soluble human bone marrow stromal cell antigen-1 (BST-1) (human) (UniProt Q10588); assay: phage ELISA, BST-1 captured by antibody BEC7
[2] = target: soluble human bone marrow stromal cell antigen-1 (BST-1) (human) (UniProt Q10588); assay: affinity chromatography, SDS-PAGE with silver staining, legend of FIG. 8
[3] = target: soluble human bone marrow stromal cell antigen-1 (BST-1) (human) (UniProt Q10588); assay: affinity chromatography, SNPb-1 on avidin-agarose, elution with 1.0 M NaCl
[4] = target: soluble human bone marrow stromal cell antigen-1 (BST-1) (human) (UniProt Q10588); assay: Biacore SPR, legend of FIG. 6

| Binder | binding [1] | binding [2] | binding [3] | binding [4] |
| --- | --- | --- | --- | --- |
| B1 | binds | – | – | – |
| HSQISGKYQRYLKDAK (biotin bound to the amino group of the added C-terminal Lys) [SNPb-1 (SNP-1 with an additional C-terminal Lys carrying biotin)] | – | binds | binds | binds |
| HSQISGKYQRYLKDA (amino group of the N-terminal bound with Sulfo-NHS-LC-Biotin) [bSNP-1 (SNP-1 biotinylated at the N-terminal)] | – | – | – | binds |

— patent US6414113B1, “Peptides binding to bone marrow stromal cell antigen” (Biomolecular Engineering Research Institute, priority 1998, dated 2002)
